PubChem BioAssay AID1259425 – University of Nebraska Medical Center | 2018
Purpose: 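Compare each knockdown with KSR1 silencing using changes in marker transcripts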 (primary screen). Cells: HCT116 human colon cancer cells. Reagents: siRNA pool against human genes, 50 nM siRNA. Measurement: 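After 50 nM siRNA pool, branched-DNA assay measures six marker transcripts per well, minus blank, normalised to the geometric mean of two housekeeping transcripts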. Reading the numbers: BNIP3L mRNA: higher = more BNIP3L transcript after knockdown; NDRG1 mRNA: higher = more NDRG1 transcript after knockdown; BNIP3 mRNA: higher = more BNIP3 transcript after knockdown; ALDOC mRNA: higher = more ALDOC transcript after knockdown; ACSL5 mRNA: higher = more ACSL5 transcript after knockdown.
Here is an unselected part of about 14,000 deposited reagents. Not given: the time to read-out.

Gene | BNIP3L mRNA, set 1 | NDRG1 mRNA, set 1 | BNIP3 mRNA, set 1 | ALDOC mRNA, set 1 | ACSL5 mRNA, set 1
PHF19 (PHD finger protein 19) | 0.161 | 0.593 | 0.45 | 0.032 | 0.291
AHNAK (AHNAK nucleoprotein) | 0.165 | 0.101 | 0.249 | 0.0297 | 0.308
ABLIM2 (actin binding LIM protein family member 2) | 0.127 | 0.23 | 0.292 | 0.0696 | 0.105
DHRS7 (dehydrogenase/reductase 7) | 0.0755 | 0.163 | 0.33 | 0.0334 | 0.275
POPDC1 (popeye domain cAMP effector 1) | 0.0866 | 0.127 | 0.348 | 0.0139 | 0.103
ADORA2B (adenosine A2b receptor) | 0.163 | 0.16 | 0.291 | 0.0289 | 0.179
AMY2A (amylase alpha 2A) | 0.0616 | 0.127 | 0.281 | 0.00711 | 0.112
PITRM1 (pitrilysin metallopeptidase 1) | 0.16 | 0.0794 | 0.228 | 0.0205 | 0.14
PPBP (pro-platelet basic protein) | 0.0766 | 0.0588 | 0.266 | 0.0453 | 0.196
ALPG (alkaline phosphatase, germ cell) | 0.146 | 0.628 | 0.599 | 0.0198 | 0.212
CARD19 (caspase recruitment domain family member 19) | 0.158 | 0.202 | 0.306 | 0.0855 | 0.234
EPO (erythropoietin) | 0.0669 | 0.108 | 0.234 | 0.0244 | 0.214
ZNF184 (zinc finger protein 184) | 0.0643 | 0.123 | 0.325 | 0.0229 | 0.0877
SLC29A2 | 0.177 | 0.514 | 0.242 | 0.137 | 0.13
GPC4 (glypican 4) | 0.161 | 0.327 | 0.303 | 0.0234 | 0.195
R3HDM1 (R3H domain containing 1) | 0.093 | 0.153 | 0.375 | 0.017 | 0.165
DHX33 (DEAH-box helicase 33) | 0.16 | 0.119 | 0.286 | 0.116 | 0.333
HFE (homeostatic iron regulator) | 0.156 | 0.0775 | 0.205 | 0.00919 | 0.088
S100A5 (S100 calcium binding protein A5) | 0.12 | 0.0622 | 0.276 | 0.019 | 0.0959
SMCP (sperm mitochondria associated cysteine rich protein) | 0.111 | 0.196 | 0.273 | 0.00656 | 0.0563
DUSP12 (dual specificity phosphatase 12) | 0.0674 | 0.117 | 0.207 | 0.0285 | 0.167
GTF2A1L (general transcription factor IIA subunit 1 like) | 0.106 | 0.187 | 0.243 | 0.0021 | 0.316
DNAJC3 (DnaJ heat shock protein family (Hsp40) member C3) | 0.118 | 0.113 | 0.333 | 0.0162 | 0.144
SPAG5 (sperm associated antigen 5) | 0.121 | 0.169 | 0.334 | 0.0904 | 0.162

Reformatted: entries from further up
Gene,"BNIP3L mRNA, set 1","NDRG1 mRNA, set 1","BNIP3 mRNA, set 1","ALDOC mRNA, set 1","ACSL5 mRNA, set 1"
SLC29A2,0.177,0.514,0.242,0.137,0.13
GPC4 (glypican 4),0.161,0.327,0.303,0.0234,0.195
R3HDM1 (R3H domain containing 1),0.093,0.153,0.375,0.017,0.165
DHX33 (DEAH-box helicase 33),0.16,0.119,0.286,0.116,0.333
HFE (homeostatic iron regulator),0.156,0.0775,0.205,0.00919,0.088
S100A5 (S100 calcium binding protein A5),0.12,0.0622,0.276,0.019,0.0959

More reagents follow.
Gene | BNIP3L mRNA, set 1 | NDRG1 mRNA, set 1 | BNIP3 mRNA, set 1 | ALDOC mRNA, set 1 | ACSL5 mRNA, set 1
EFHD1 (EF-hand domain family member D1) | 0.13 | 0.266 | 0.368 | 0.0429 | 0.17
RTP3 (receptor transporter protein 3) | 0.0817 | 0.048 | 0.271 | 0.0677 | 0.0736
IRF3 (interferon regulatory factor 3) | 0.137 | 0.093 | 0.242 | 0.0083 | 0.177
IST1 (IST1 factor associated with ESCRT-III) | 0.0624 | 0.169 | 0.249 | 0.0448 | 0.211
MADD (MAP kinase activating death domain) | 0.0868 | 0.106 | 0.357 | 0.0389 | 0.066
COX14 (cytochrome c oxidase assembly factor COX14) | 0.0493 | 0.179 | 0.289 | 0.0437 | 0.25
RNF128 (ring finger protein 128) | 0.131 | 0.107 | 0.25 | 0.0315 | 0.166
ITGB3 (integrin subunit beta 3) | 0.0944 | 0.104 | 0.372 | 0.0248 | 0.229
GREM1 (gremlin 1, DAN family BMP antagonist) | 0.0512 | 0.124 | 0.206 | 0.00701 | 0.0572
PRAG1 (PEAK1 related, kinase-activating pseudokinase 1) | 0.0548 | 0.31 | 0.285 | 0.00495 | 0.154
QPCTL (glutaminyl-peptide cyclotransferase like) | 0.0733 | 0.0965 | 0.275 | 0.00953 | 0.0826
ADRA2B (adrenoceptor alpha 2B) | 0.354 | 0.387 | 0.631 | 0.046 | 0.335
LSP1 (lymphocyte specific protein 1) | 0.0979 | 0.241 | 0.196 | 0.0396 | 0.397
ALB (albumin) | 0.133 | 0.2 | 0.259 | 0.029 | 0.13
OR1D2 (olfactory receptor family 1 subfamily D member 2) | 0.113 | 0.0976 | 0.374 | 0.0522 | 0.0933
LINC00652 (long independently transcribed non-coding RNA 652) | 0.11 | 0.0686 | 0.38 | 0.0458 | 0.104
ACAP1 (ArfGAP with coiled-coil, ankyrin repeat and PH domains 1) | 0.187 | 0.228 | 0.345 | 0.0267 | 0.0682
TEX10 (testis expressed 10) | 0.13 | 0.183 | 0.349 | 0.0425 | 0.515
NPLOC4 (NPL4 homolog, ubiquitin recognition factor) | 0.162 | 0.241 | 0.414 | 0.0424 | 0.135
PTPRF (protein tyrosine phosphatase receptor type F) | 0.0489 | 0.123 | 0.202 | 0.0131 | 0.137
GCN1 (GCN1 activator of EIF2AK4) | 0.153 | 0.334 | 0.357 | 0.0307 | 0.221
KIF17 (kinesin family member 17) | 0.114 | 0.138 | 0.395 | 0.0152 | 0.166
RGL3 (ral guanine nucleotide dissociation stimulator like 3) | 0.135 | 0.0992 | 0.268 | 0.0269 | 0.211
BHMT (betaine--homocysteine S-methyltransferase) | 0.0705 | 0.0243 | 0.21 | 0.0097 | 0.0926
APOC2 (apolipoprotein C2) | 0.214 | 0.213 | 0.528 | 0.0689 | 0.254
RUFY2 (RUN and FYVE domain containing 2) | 0.0553 | 0.0761 | 0.322 | 0.02 | 0.0725
